Measurements: the supplement of paper PMC12819154, “High-throughput peptide-centric local stability assay extends protein–ligand identification to membrane proteins, tissues and bacteria” (Nature Structural & Molecular Biology, 2025)
The list shows a part of the results. Small differences around the control level are noise.

The chains behind the UniProt entries cited, without tags or fusion partners. Where a name states a change or a piece, a line headed by the entry shows the natural chain unless it says otherwise.
UniProt Q6IRU2, whole entry: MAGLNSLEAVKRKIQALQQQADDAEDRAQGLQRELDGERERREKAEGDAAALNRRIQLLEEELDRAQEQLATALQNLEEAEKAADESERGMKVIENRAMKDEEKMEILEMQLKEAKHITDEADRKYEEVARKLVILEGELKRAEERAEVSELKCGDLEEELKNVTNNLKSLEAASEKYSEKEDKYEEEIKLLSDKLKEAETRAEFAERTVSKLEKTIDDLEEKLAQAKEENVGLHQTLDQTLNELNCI
UniProt Q6PER3, whole entry: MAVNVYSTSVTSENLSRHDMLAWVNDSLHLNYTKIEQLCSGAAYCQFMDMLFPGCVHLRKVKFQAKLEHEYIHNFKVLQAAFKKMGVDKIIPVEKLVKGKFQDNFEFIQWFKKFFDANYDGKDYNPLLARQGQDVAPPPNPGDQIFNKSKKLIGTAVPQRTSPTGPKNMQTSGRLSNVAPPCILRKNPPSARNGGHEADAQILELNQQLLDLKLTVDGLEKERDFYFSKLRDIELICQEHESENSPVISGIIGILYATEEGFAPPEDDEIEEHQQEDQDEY
UniProt Q6SP97: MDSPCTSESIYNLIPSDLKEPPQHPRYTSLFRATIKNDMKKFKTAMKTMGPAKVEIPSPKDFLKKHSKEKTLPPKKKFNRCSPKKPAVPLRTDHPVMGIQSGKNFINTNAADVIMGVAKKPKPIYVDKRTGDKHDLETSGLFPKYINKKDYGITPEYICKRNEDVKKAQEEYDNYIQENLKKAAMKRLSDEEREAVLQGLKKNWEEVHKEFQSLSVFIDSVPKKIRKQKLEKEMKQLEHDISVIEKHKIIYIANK
UniProt Q6IS41: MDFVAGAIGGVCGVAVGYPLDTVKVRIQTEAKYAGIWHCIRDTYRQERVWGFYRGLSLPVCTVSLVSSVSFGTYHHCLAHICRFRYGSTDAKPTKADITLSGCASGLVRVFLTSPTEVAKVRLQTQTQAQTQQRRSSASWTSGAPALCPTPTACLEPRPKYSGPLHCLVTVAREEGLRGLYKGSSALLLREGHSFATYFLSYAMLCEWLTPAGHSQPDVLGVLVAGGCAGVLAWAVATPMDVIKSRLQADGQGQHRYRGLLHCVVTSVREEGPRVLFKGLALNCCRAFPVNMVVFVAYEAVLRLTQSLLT
UniProt Q6NS82: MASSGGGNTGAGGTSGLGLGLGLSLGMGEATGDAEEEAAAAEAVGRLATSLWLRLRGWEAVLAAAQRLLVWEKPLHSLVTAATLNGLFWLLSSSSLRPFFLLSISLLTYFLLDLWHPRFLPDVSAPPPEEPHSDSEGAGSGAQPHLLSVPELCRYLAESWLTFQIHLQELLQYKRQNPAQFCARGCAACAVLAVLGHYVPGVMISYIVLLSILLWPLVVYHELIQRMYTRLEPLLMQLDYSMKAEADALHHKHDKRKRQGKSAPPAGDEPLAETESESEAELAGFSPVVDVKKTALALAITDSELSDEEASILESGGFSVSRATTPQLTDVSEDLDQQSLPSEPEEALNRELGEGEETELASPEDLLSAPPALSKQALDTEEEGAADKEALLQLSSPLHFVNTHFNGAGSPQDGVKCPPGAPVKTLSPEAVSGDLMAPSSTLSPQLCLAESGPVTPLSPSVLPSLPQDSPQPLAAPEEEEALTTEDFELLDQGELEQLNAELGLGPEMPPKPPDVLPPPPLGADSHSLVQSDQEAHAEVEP
UniProt Q6PE15: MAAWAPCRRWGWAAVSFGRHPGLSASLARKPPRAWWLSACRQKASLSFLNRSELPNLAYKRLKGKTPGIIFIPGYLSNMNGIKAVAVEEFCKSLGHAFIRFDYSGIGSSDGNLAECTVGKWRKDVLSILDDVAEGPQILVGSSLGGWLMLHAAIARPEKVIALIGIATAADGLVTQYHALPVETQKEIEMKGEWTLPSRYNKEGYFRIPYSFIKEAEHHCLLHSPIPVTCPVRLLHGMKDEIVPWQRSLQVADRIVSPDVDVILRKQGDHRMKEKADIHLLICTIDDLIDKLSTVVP
UniProt Q6P069: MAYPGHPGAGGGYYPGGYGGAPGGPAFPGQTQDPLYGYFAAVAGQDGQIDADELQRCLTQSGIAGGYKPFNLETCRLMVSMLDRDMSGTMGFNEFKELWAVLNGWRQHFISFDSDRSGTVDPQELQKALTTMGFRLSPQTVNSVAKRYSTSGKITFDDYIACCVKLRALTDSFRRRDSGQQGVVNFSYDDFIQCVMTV
UniProt Q6NZR2: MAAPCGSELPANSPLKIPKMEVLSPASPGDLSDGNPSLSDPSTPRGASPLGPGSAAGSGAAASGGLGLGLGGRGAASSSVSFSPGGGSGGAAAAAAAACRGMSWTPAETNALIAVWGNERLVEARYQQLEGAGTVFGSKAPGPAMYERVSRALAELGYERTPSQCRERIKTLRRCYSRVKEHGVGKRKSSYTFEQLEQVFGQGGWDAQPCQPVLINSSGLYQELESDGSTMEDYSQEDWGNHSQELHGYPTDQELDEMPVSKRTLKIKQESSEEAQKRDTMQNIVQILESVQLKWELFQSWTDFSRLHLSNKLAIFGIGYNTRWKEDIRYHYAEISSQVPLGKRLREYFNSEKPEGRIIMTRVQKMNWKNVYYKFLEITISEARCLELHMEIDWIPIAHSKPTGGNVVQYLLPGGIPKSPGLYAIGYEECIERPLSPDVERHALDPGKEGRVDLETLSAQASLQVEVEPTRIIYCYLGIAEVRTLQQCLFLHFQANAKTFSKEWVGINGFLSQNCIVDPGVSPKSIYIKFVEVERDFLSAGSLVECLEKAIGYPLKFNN
UniProt Q6P542: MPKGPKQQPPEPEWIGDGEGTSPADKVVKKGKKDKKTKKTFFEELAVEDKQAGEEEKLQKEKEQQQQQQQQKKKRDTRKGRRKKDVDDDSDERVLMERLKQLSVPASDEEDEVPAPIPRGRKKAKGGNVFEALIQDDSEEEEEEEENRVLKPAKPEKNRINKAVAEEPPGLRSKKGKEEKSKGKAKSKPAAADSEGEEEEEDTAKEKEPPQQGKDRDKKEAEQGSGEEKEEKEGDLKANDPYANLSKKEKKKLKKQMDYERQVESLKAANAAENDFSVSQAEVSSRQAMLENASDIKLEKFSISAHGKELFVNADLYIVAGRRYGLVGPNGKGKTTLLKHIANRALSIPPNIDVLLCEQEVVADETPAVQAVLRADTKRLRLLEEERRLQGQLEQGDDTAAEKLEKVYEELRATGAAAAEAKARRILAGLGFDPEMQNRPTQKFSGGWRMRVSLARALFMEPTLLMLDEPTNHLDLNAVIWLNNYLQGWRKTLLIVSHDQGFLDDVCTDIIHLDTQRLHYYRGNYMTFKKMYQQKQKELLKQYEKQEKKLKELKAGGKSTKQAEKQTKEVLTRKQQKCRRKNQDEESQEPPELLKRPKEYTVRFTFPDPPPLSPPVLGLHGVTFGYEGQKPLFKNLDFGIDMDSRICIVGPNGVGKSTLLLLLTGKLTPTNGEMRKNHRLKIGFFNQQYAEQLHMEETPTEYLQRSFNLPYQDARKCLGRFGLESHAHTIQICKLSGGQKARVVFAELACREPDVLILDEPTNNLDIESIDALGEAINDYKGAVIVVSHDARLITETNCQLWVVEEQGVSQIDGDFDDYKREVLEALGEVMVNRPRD
UniProt Q6P4S8, whole entry: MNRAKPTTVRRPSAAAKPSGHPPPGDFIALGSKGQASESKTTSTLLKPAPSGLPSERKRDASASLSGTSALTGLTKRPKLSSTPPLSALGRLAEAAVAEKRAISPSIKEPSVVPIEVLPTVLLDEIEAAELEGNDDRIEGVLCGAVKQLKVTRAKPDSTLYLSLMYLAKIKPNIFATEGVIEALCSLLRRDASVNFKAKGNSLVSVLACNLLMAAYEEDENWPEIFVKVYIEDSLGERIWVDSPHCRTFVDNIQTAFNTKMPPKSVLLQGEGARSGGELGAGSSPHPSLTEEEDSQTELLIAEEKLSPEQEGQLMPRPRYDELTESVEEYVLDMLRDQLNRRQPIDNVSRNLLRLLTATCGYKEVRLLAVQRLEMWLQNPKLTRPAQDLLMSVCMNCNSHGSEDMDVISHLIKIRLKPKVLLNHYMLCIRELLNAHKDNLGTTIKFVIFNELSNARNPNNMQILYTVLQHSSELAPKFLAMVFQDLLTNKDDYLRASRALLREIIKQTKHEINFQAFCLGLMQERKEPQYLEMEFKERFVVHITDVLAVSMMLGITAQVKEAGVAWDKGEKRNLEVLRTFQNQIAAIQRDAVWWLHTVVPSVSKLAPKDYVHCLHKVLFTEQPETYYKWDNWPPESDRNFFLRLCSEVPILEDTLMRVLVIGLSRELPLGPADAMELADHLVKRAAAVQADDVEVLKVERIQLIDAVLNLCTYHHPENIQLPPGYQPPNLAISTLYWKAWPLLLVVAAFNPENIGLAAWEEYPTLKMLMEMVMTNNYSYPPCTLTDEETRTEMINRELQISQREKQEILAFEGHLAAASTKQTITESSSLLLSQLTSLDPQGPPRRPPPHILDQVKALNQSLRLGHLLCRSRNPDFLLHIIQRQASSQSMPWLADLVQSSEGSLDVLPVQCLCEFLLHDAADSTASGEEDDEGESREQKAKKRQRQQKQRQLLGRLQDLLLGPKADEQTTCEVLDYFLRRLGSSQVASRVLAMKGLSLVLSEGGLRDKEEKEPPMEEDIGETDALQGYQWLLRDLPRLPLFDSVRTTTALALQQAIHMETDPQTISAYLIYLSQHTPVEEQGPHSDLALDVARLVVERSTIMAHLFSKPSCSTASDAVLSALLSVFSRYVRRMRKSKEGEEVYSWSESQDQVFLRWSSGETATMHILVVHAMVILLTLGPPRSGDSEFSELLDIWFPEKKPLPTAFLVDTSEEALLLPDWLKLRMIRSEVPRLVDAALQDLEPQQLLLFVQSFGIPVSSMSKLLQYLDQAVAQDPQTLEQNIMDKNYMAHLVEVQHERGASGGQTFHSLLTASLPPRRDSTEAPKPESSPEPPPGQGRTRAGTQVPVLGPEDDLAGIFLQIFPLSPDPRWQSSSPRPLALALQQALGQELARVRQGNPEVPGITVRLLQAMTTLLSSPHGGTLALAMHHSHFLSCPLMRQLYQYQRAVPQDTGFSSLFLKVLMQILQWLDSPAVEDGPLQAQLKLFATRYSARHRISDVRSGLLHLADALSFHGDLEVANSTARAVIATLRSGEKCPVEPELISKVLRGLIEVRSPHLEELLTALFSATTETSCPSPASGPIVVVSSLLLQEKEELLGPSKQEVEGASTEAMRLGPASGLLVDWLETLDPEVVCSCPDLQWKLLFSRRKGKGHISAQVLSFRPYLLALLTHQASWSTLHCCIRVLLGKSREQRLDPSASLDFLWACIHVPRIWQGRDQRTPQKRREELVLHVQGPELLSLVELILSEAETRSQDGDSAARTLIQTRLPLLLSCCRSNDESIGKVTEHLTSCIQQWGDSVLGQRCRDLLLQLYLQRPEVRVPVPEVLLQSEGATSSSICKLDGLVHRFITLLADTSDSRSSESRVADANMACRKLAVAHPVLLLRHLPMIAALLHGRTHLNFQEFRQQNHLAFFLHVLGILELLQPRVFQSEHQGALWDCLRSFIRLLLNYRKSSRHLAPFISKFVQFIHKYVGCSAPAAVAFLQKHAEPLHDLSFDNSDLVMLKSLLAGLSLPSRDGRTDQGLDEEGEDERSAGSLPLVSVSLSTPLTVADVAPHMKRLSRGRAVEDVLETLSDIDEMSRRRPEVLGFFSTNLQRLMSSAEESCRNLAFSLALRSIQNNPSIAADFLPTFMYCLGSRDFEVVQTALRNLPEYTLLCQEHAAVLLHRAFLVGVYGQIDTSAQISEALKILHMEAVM

Compound: CN[C@@H]1C[C@H]2O[C@@](C)([C@@H]1OC)n1c3ccccc3c3c4c(c5c6ccccc6n2c5c31)C(=O)NC4 [staurosporine]
Test: log2 fold change of tryptic peptide abundance, ligand vs vehicle (limited proteolysis) (log2 ratio); higher = more trypsin-susceptible (destabilized)
Conditions: ligand concentration: 20 uM; sample: mouse liver crude lysate; replicate design: treated separately

Q: How did the log2 fold change turn out when “UniProt Q6IRU2 (peptide sequence: MEILEMQLK, peptide start residue: 105)” was run?
A: Its log2 fold change is 0.0813.

Q: How did the log2 fold change turn out when “UniProt Q6PER3 (peptide sequence: LTVDGLEKER, peptide start residue: 214)” was run?
A: Its log2 fold change is 0.279.

Q: How did the log2 fold change turn out when “UniProt Q6SP97 (peptide sequence: EAVLQGLKK, peptide start residue: 194)” was run?
A: The log2 fold change was 0.127.

Q: With “UniProt Q6IS41 (peptide sequence: LQADGQGQHR, peptide start residue: 247)” as the target, how does the log2 fold change read?
A: The log2 fold change was -0.365.

Q: Which log2 fold change does the source give for “UniProt Q6PDK2 (peptide sequence: SEAGHLLLQK, peptide start residue: 4507)” here?
A: The log2 fold change was 0.511.

Q: How did the log2 fold change turn out when “UniProt Q6EDY6 (peptide sequence: LTVASFLSDR, peptide start residue: 843)” was run?
A: The log2 fold change was -0.22.

Q: Which log2 fold change does the source give for “UniProt Q6NS82 (peptide sequence: AEADALHHK, peptide start residue: 244)” here?
A: The log2 fold change was 0.244.

Q: “UniProt Q6PE15 (peptide sequence: SELPNLAYKR, peptide start residue: 52)” was tested. Which log2 fold change did it give?
A: Its log2 fold change is 0.415.

Q: How did the log2 fold change turn out when “UniProt Q6P069 (peptide sequence: ALTDSFRR, peptide start residue: 168)” was run?
A: The log2 fold change was 0.631.

Q: Which log2 fold change does the source give for “UniProt Q6NZR2 (peptide sequence: ALAELGYER, peptide start residue: 152)” here?
A: The log2 fold change was -0.286.

Q: For “UniProt Q6P542 (peptide sequence: LTPTNGEMR, peptide start residue: 667)”, which log2 fold change is on record?
A: The log2 fold change was 0.104.

Q: With “UniProt Q6P4S8 (peptide sequence: SLLAGLSLPSR, peptide start residue: 2005)” as the target, how does the log2 fold change read?
A: The log2 fold change was -0.216.
